No constants are given. Whether binding was seen depends on the method and setting. Binding seen in cells or lysates may run through a third protein. Binding can be weak; no strength is given.
Target: GFP-Hakai-S (short isoform) (Drosophila)
Experiment: co-IP; myc-GFP, GFP-Hakai or GFP-Hakai-S transfected into S2 cells; lysate precipitated with anti-GFP nanobody agarose beads; endogenous Fl(2)d detected by western blot with anti-Fl(2)d (9G2)

B1: endogenous Fl(2)d protein (protein, UniProt Q9Y091 1-536)
chain: MSVAAMTMDDQRPCMNSYDKMPPTKYEQNLNILNSSQNSGATGGPASPTPSGLEDHHHHHHPHPHHHHHQEQQQQQQQQQHLQQQQQQQQQQHAAAVAEAVAAAEQRQRLLEDEIENLKLEQVRMAQQCADAQRREKILMRRLANKEQEFQDYVSQIAEYKAQQAPTALALRTALLDPAVNLLFERLKKELKATKAKLEETQNELSAWKFTPDSNTGKRLMAKCRLLYQENEELGKMTSNGRLAKLETELAMQKSFSEEVKKSQSELDDFLQELDEDVEGMQSTILFLQQELKTTRDRIQTLEKENAQLKQAIKDEVVAPAAATNGGTNTTINKLETIHEDACMANNPTNPDCYNGNTNNEQIAAVPQIPLSDDGSNMNGNAARLARKRNYQEEEALPTVVVVPTPTPVGNNVQEAPPIREVTAPRTLPPKKSKLRGITTRRNSQLEEDHQPVTTPVAVPMIVDNAVAGMASEEAAAAAAAVNNSNTGIIPETGVQVGVPVEGGDPGAPAAPGRILTRRRSVRMQQNGSGAVDYST
**Q.** Which binding does the source give for B1 here?
**A.** Its binding is “binds”.

From article PMC8041851
